This is an account of results in PubChem BioAssay AID248 (DTP/NCI, 2004).

The test deals with L1210 leukemia ip in BDF1 mice, survival T/C. Put plainly: NCI In Vivo Anticancer Drug Screen. Data for tumor model L1210 Leukemia (intraperitoneal) in B6D2F1 (BDF1) mice. The note with it: T/C endpoint: mean survival time, higher T/C = longer survival.
Setting [1] is: dose: 100.0 mg/kg/injection, schedule: Q01DX009 (ip), vehicle: Klucel (hydroxypropylcellulose) (HPC).
[2] abbreviates: dose: 200.0 mg/kg/injection, schedule: Q01DX009 (ip), vehicle: Klucel (hydroxypropylcellulose) (HPC).
The mark [3] stands for this setting: dose: 400.0 mg/kg/injection, schedule: Q04DX003 (ip), vehicle: Klucel (hydroxypropylcellulose) (HPC).
The mark [4] stands for this setting: dose: 400.0 mg/kg/injection, schedule: Q04DX003 (ip), vehicle: saline.
[5] abbreviates: dose: 15.0 mg/kg/injection, schedule: Q04DX003 (ip), vehicle: saline with Tween-80.
Setting [6] is: dose: 25.0 mg/kg/injection, schedule: Q04DX002 (ip), vehicle: Klucel (hydroxypropylcellulose) (HPC).
Setting [7] is: dose: 50.0 mg/kg/injection, schedule: Q04DX002 (ip), vehicle: Klucel (hydroxypropylcellulose) (HPC).
[8] abbreviates: dose: 100.0 mg/kg/injection, schedule: Q04DX002 (ip), vehicle: Klucel (hydroxypropylcellulose) (HPC).
Where [9] appears, read: dose: 200.0 mg/kg/injection, schedule: Q04DX002 (ip), vehicle: Klucel (hydroxypropylcellulose) (HPC).
The mark [10] stands for this setting: dose: 400.0 mg/kg/injection, schedule: Q04DX002 (ip), vehicle: Klucel (hydroxypropylcellulose) (HPC).

The list does not hold the whole screen: it gathers tests that were run many times, whatever their T/C, doses with no T/C, and many T/C values between a quarter and a half above the control. Further doses and runs are listed elsewhere. T/C is the treated group as % of the vehicle group. Some entries give survivors of the animals treated and no T/C: the source files T/C as zero there, which appears to mark a toxic dose or a test without result, not a measured value. Some doses without a T/C left all or most animals alive at the check, yet need not have been tolerated: survival well below the control is almost never listed, so the zero probably covers shortened survival too. Survivors were counted at the toxicity check, usually on the fifth day, unless a day is given; later deaths do not show. Schedules are NCI's codes, read here as Q, the interval in days (D) or hours (H), X, the number of doses. Some entries were tested several times; the results are listed from low to high. Where survival is the endpoint, the PubChem record calls one and a half times the control and up active, and a quarter to a half above the control has no call in these data; cut-offs in other NCI protocols can differ. Some T/C values are followed by the survivors on the day toxicity was checked, most often the fifth; without a count, all were alive then.

For `O=NN(CCCl)C(=O)NC1C2CC3CC(C2)CC1C3` (configuration not stated), the survivor count reads like this: (dose: 375.0 mg/kg/injection, schedule: Q01DX001 (ip), vehicle: other) 6 of 10; (dose: 500.0 mg/kg/injection, schedule: Q01DX001 (ip), vehicle: other) 8 of 10.
Turning to `O=S(=O)(OCC#CCOS(=O)(=O)c1cccs1)c1cccs1`, the survivor count by setting is: (dose: 50.0 mg/kg/injection, schedule: Q01DX009 (ip), vehicle: Klucel (hydroxypropylcellulose) (HPC)) 4 of 6; under setting [1], 0 of 6; under setting [2], 1 of 6; under setting [3], 6 of 6.
Take `Clc1ccc(NC(Nc2ccc(Cl)c(Cl)c2)C(Cl)(Cl)Cl)cc1Cl`: the survivor count (dose: 400.0 mg/kg/injection, schedule: Q04DX003 (ip), vehicle: saline with Tween-80) is listed as 6 of 6.
Take `CC[CH2][Pb]([Cl])([CH2]CC)[CH2]CC`: the survivor count (dose: 100.0 mg/kg/injection, schedule: Q04DX003 (ip), vehicle: Klucel (hydroxypropylcellulose) (HPC)) is on record as 2 of 6; the survivor count (dose: 200.0 mg/kg/injection, schedule: Q04DX003 (ip), vehicle: Klucel (hydroxypropylcellulose) (HPC)) was 1 of 6; the survivor count under setting [3] is 3 of 6.
Turning to `CCCCCCCCCCCCCCCCCC[n+]1cccc(C#N)c1`, the survivor count runs as follows: (dose: 20.0 mg/kg/injection, schedule: Q01DX009 (ip), vehicle: saline) 3 of 6; (dose: 75.0 mg/kg/injection, schedule: Q01DX001 (ip), vehicle: saline) 0 of 6; (dose: 150.0 mg/kg/injection, schedule: Q01DX001 (ip), vehicle: saline) 0 of 6; (dose: 300.0 mg/kg/injection, schedule: Q01DX001 (ip), vehicle: saline) 0 of 6.
On to `CCCCCCCCN(C)/N=N/c1nc[nH]c1C(N)=O`, for which the T/C by setting is: under setting [2], 131 % of control; (dose: 400.0 mg/kg/injection, schedule: Q01DX009 (ip), vehicle: Klucel (hydroxypropylcellulose) (HPC)) 144 % of control.
As to `Oc1ccc(-c2ccc(O)c(O)c2)cc1O`, the survivor count (dose: 300.0 mg/kg/injection, schedule: Q01DX001 (ip), vehicle: carboxymethylcellulose (CMC)) is given as 2 of 6.
For `N=C(N)SCc1csc(N)n1`, the survivor count (dose: 200.0 mg/kg/injection, schedule: Q04DX003 (ip), vehicle: saline) is recorded as 1 of 6; the survivor count (dose: 400.0 mg/kg/injection, schedule: Q01DX009 (ip), vehicle: saline) was 0 of 6; the survivor count under setting [4] was 0 of 6.
With `CC([NH-])C[NH-].[Cl][Pt+2][Cl]` (configuration not stated), the T/C is, setting by setting: (dose: 1.25 mg/kg/injection, schedule: Q01DX009 (ip), vehicle: saline) 133 and 136 % of control; (dose: 2.5 mg/kg/injection, schedule: Q01DX009 (ip), vehicle: saline) 139, 146, 148, 162 % of control [5 of 6 alive]; (dose: 5.0 mg/kg/injection, schedule: Q01DX009 (ip), vehicle: saline) 148 % of control; (dose: 6.6 mg/kg/injection, schedule: Q04DX003 (ip), vehicle: saline with Tween-80) 127 and 131 % of control; (dose: 10.0 mg/kg/injection, schedule: Q04DX003 (ip), vehicle: saline with Tween-80) 129 and 140 % of control; under setting [5], 138 % of control. Further, the survivor count runs as follows: (dose: 10.0 mg/kg/injection, schedule: Q01DX009 (ip), vehicle: saline) 3 of 6 and 5 of 6; under setting [5], 4 of 6; under setting [6], 0 of 3; under setting [7], 0 of 3; under setting [8], 0 of 3; under setting [9], 0 of 3. The survivor count under setting [10] is listed as 0 of 3.
As to `CCOP1(=S)OCCO1`, the survivor count under setting [3] is 2 of 6.
As for `O=C(O)c1c(Cl)c([N+](=O)[O-])cc([N+](=O)[O-])c1Cl`, under setting [4], the survivor count is recorded as 2 of 6.
With `CCOC(=O)c1ccc(Cl)cc1`, the survivor count (dose: 200.0 mg/kg/injection, schedule: Q01DX009 (ip), vehicle: saline with Tween-80) is reported as 6 of 6 and the survivor count (dose: 400.0 mg/kg/injection, schedule: Q01DX009 (ip), vehicle: saline with Tween-80) is 3 of 6.
With `CCCCN(C)N=Nc1ccc(CCC(=O)NN)cc1`, the survivor count (dose: 22.0 mg/kg/injection, schedule: Q01DX009 (ip), vehicle: carboxymethylcellulose (CMC)) is listed as 6 of 6.
As to `CCCCCCCCCCCCOP(=S)(S)OCCCCCCCCCCCC` (tested in a mixture with another compound), the survivor count is reported as 1 of 3 under setting [1], 1 of 3 under setting [9] and 0 of 3 under setting [10].
In the case of `NC(=S)NCC12CC3CC(CC(C3)C1)C2`, the T/C (dose: 12.0 mg/kg/injection, schedule: Q04DX002 (ip), vehicle: Klucel (hydroxypropylcellulose) (HPC)) is 141 % of control [2 of 3 alive]. Further, the survivor count reads like this: under setting [6], 3 of 3; under setting [7], 3 of 3; under setting [8], 0 of 3; under setting [9], 0 of 3; under setting [10], 0 of 3.
